Measured values: PubChem BioAssay AID2685 (National Center for Advancing Translational Sciences (NCATS), 2010)
The list shows a part of the results. Further columns of the screen follow, without active or inactive calls. Compounds called inactive in the main read-out are mostly missing here. The note in brackets gives the kind of curve behind each potency; many fits are weak.

Test: qHTS Assay for Lipid Storage Modulators in Drosophila S3 Cells;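 for cell number change: cells counted by Cell Tracker Red CMTPX staining in the red channel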
Settings: BODIPY lipid droplet fluorescence, 18-24 h; for cell number change: measured here: cell count max response, cells fed with added oleic acid
How it was run: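 Drosophila S3 cells got compounds at several concentrations plus oleic acid (400 uM solution). Laser-scanning cytometry with 488 nm excitation read lipid droplets at 500-530 nm and cells at 575-640 nm. Percent activity was relative to 20 uM Triacsin C.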

[1] = measured here: cell number channel AC50, cells fed with added oleic acid
[2] = measured here: lipid fluorescence (Fed channel) AC50, cells fed with added oleic acid

Compound	cell number change [%]	AC50 [1]	AC50 [2]
CC(=O)Nc1ccc(NC(=O)CCCCCN2C(=O)c3ccccc3C2=O)cc1	55	29.1 µM [rising, single point]	–
CCOC(=O)N1CCN(C(=O)c2oc3ccc(S(=O)(=O)N4CC(C)CC(C)C4)cc3c2C)CC1 (centres undefined)	-15.4	–	16.4 µM [falling, single point]
CS(=O)(=O)N(CC(=O)N1CCCC1)c1ccc(Cl)cc1	6.59	–	6.51 µM [rising, partial curve]
COC(=O)/C(=C\Nc1ccc(Cl)cc1Cl)NC(=O)c1ccc(Cl)cc1Cl	-42.9	18.4 µM [falling, partial curve, poor fit]	16.4 µM [falling, single point]
COc1ccc(C2(CNC(=O)c3ccc(OC)c([N+](=O)[O-])c3)CCCCC2)cc1OC	-38.1	0.00461 µM [falling, full curve, poor fit]	0.731 µM [rising, single point]
COc1ccccc1OCCC(=O)NNC(=O)c1ccccc1F	-23.7	–	23.1 µM [falling, partial curve, poor fit]
O=C(O)COc1nsnc1N1CCOCC1	7.81	–	–
CN(C(=O)COC(=O)/C=C/c1ccccc1[N+](=O)[O-])c1ccccc1	26.2	2.06 µM [rising, full curve, poor fit]	–
COc1cccc(CN2CCN(Cc3cccc4c3OCO4)CC2CCO)c1 (centres undefined)	13	–	6.51 µM [rising, single point]
CCCn1c(=O)n(C)c(=O)c2c(SCC(=O)NCc3ccco3)nc(C3CC3)nc21	24	–	20.6 µM [rising, partial curve]
C#CCOC(=O)CCC(=O)NCCc1ccccc1	-2.96	–	0.58 µM [falling, full curve]
COc1ccccc1N(Cc1ccccc1)S(=O)(=O)c1cccc(C(=O)Nc2cccc(C)n2)c1	87.9	29.1 µM [rising, single point]	–
CN(C)S(=O)(=O)N1CCCC(C(=O)c2ccc(-c3ccccc3)c(F)c2)C1 (centres undefined)	-0.602	–	29.1 µM [falling, single point]
COC(=O)c1ccccc1NC(=O)C(CCS(C)(=O)=O)NC(C)=O (centres undefined)	7.88	6.51 µM [rising, single point]	–
C=CCOc1ccc(CN(C)C(=O)c2ccc(CNS(=O)(=O)c3ccc(C)c(C)c3)cc2)cc1	26.3	–	0.82 µM [rising, full curve]
CC(=O)Nc1cc(C)nn1-c1nc(C)cc(C)n1	–	0.116 µM [rising, single point]	–
CCOCCCN(Cc1ccco1)C(=O)c1cc2c(=O)[nH]c3ccc(C)cc3c2s1	-28.1	–	29.1 µM [falling, single point]
c1cnc(NCCNc2ncccn2)nc1	-52.3	16.4 µM [falling, single point]	–
COCCn1c(-c2ccc(OC)c(OC)c2)nc2ccccc21	–	2.06 µM [rising, partial curve]	0.731 µM [rising, single point]
CC(C)(C)CC(=O)NCCCN1CCOCC1	-26.1	–	6.51 µM [rising, partial curve, poor fit]
CCn1c(N2CCN(S(=O)(=O)c3ccccc3)CC2)nc2ccccc21	-13.7	–	23.1 µM [falling, partial curve]

By substructure, those above containing a nitro group on carbon
Compound	cell number change [%]	AC50 [1]	AC50 [2]
COc1ccc(C2(CNC(=O)c3ccc(OC)c([N+](=O)[O-])c3)CCCCC2)cc1OC	-38.1	0.00461 µM [falling, full curve, poor fit]	0.731 µM [rising, single point]
CN(C(=O)COC(=O)/C=C/c1ccccc1[N+](=O)[O-])c1ccccc1	26.2	2.06 µM [rising, full curve, poor fit]	–

(listing goes on)

Compound	cell number change [%]	AC50 [1]	AC50 [2]
COc1ccc(Cn2nnnc2C(c2cccs2)N2CCN(c3ccc([N+](=O)[O-])cc3)CC2)cc1 (centres undefined)	–	–	5.17 µM [rising, full curve]
CC1CCc2cc(F)ccc2N1C(=O)CSc1nnc2c(n1)[nH]c1ccccc12 (centres undefined)	12.6	–	16.4 µM [falling, partial curve, poor fit]
Cc1ccc(Nc2nnc(SCC3CCCCO3)s2)cc1 (centres undefined)	12.7	–	–
CNC(=S)N/N=C/c1cn(CCOc2cccc(OC)c2)c2ccccc12	2.24	–	0.58 µM [rising, full curve]
O=C(CSc1ccc2c(c1)OCCO2)Nc1ccc2c(c1)OCO2	29.2	–	–
O=C(COC(=O)c1ccc2ncsc2c1)Nc1ncc(Cl)cc1Cl	29	–	–
Cn1cc([N+](=O)[O-])c(C(=O)NC2CCCCCC2)n1	17.6	–	–
CC(C)(C)c1ccc(-n2ncc3c2CCCC3NC(=O)C2(C(N)=O)CC2)cc1 (centres undefined)	–	1.46 µM [falling, partial curve]	2.91 µM [falling, partial curve]
COc1ccc(NC(=O)C(=O)N/N=C/c2cc(C)n(-c3cccc(Cl)c3Cl)c2C)c(OC)c1	38.2	29.1 µM [rising, single point]	–
O=C(NCc1cccnc1)C1CC(c2ccccc2O)=NO1 (centres undefined)	38.5	18.4 µM [rising, partial curve, poor fit]	–
CCCCOC(=O)c1ccc(NC(=O)C(=O)CC(=O)c2ccc(OC)cc2)cc1	-44.6	29.1 µM [falling, single point]	–
COc1ccc(NC(=O)C#Cc2ccccc2)cc1OC	-16.1	–	29.1 µM [falling, single point]
CC(C)C(C)(C#N)NC(=O)CSc1nc2scc(-c3ccccc3)c2c(=O)[nH]1 (centres undefined)	16	–	13 µM [rising, partial curve]
Cc1cccc(Oc2ccc(C(=O)NC3CCSC3=O)cn2)c1C (centres undefined)	-24.9	–	18.4 µM [falling, partial curve, poor fit]
O=C(Nc1ccccc1)NC(Cc1ccc(O)cc1)C(=O)O (centres undefined)	7.27	–	–
CCOC(=O)c1sc2nc[nH]c(=O)c2c1C	-37.8	25.9 µM [falling, single point]	0.731 µM [falling, full curve, poor fit]
CC1(C)Cc2c(cnn2-c2ccc(F)cc2)C(NC(=O)Cn2cncn2)C1 (centres undefined)	–	–	29.1 µM [falling, single point]
CCCn1ncc(/C=N/O)c1C	9.94	–	29.1 µM [rising, single point]
Cc1ccc(CN2CCNC(=O)C2CC(=O)O)o1 (centres undefined)	-42.7	3.66 µM [falling, full curve]	3.66 µM [falling, full curve]
CCOC(=O)N1CCN(C(=O)CNC(=O)c2nn(-c3ccc(OC)cc3)c(=O)c3ccccc23)CC1	70.5	10.3 µM [rising, partial curve]	–
O=C(c1ccco1)N1CCN(C(=O)c2oc(=O)c3ccccc3c2-c2ccccc2)CC1	-4.13	–	0.651 µM [falling, single point]

Compound	cell number change [%]	AC50 [1]	AC50 [2]
Cc1ccc(S(=O)(=O)N(C)c2ccc(C(=O)N3CCOCC3)cc2)cc1	0.794	–	29.1 µM [rising, single point]
CN(C)S(=O)(=O)c1ccc(C(=O)N(c2ccccn2)c2ccccn2)cc1	-19.3	0.146 µM [falling, full curve, poor fit]	–
Cc1nc(NC(=O)/C=C/c2ccccc2)sc1C(=O)Nc1cccc(Cl)c1	1.95	–	0.82 µM [rising, full curve, poor fit]
CCCN(CCO)Cc1ccc(Cl)c(Cl)c1	-6.33	–	18.4 µM [falling, single point]
CC(Nc1cc(N2CCN(S(C)(=O)=O)CC2)ccc1[N+](=O)[O-])c1ccccc1 (centres undefined)	8.57	–	1.16 µM [falling, single point]
CC(=O)Nc1ccc(C(=O)OCC(=O)N2CCN(C(=O)c3ccco3)CC2)cc1	1.01	–	2.59 µM [rising, partial curve, poor fit]
O=C(CCCn1c(SCC(=O)c2ccccc2)nc2ccccc2c1=O)NCC1CCCO1 (centres undefined)	7.91	3.26 µM [falling, single point]	1.64 µM [falling, partial curve, poor fit]
C=CSc1sc(Cl)c(N2CCOCC2)c1[N+](=O)[O-]	-57.9	2.59 µM [falling, full curve]	–
O=C(CSc1nnc(Cc2cc(=O)[nH]c(=O)[nH]2)n1-c1ccccc1)N1CCCc2ccccc21	-7.02	–	6.51 µM [rising, single point]
C#CCOCCOCCOCCNc1nc(N2CCN(C(=O)CCCCCCCCCCNC(=O)[C@H](CCCCN)n3cc(CCCC(=O)O)nn3)CC2)nc(N2CCN(C(=O)CCCCCCCCCCNC(=O)[C@H](CCCCN)n3cc(CCCC(=O)O)nn3)CC2)n1	25.3	–	–
COc1cccc(CNC(=O)N2CCN(S(=O)(=O)c3ccc(Cl)cc3)CC2)c1	17.1	–	–
CC(C)CC(=O)Nc1ccc(-c2nnn(CC(=O)NCc3ccco3)n2)cc1	-11.9	–	–
CC1(NC(=O)NCc2ccco2)CCS(=O)(=O)C1 (centres undefined)	-7.48	–	0.326 µM [falling, full curve, poor fit]
c1ccc(-c2cnc(-c3ccccc3)nc2)cc1	35.2	9.2 µM [rising, single point]	–
N#CC1(N2CCN(C(=O)c3ccccc3)CC2)CCCCC1	-2.62	–	–
OC1(C(F)(F)F)CC(O)(C(F)(F)F)n2nc(-c3ccccc3)cc2N1 (centres undefined)	–	0.146 µM [falling, full curve, poor fit]	–
COc1ccc(S(=O)(=O)N(CC(C)C)CC(C)C)c2cccnc12	-34.6	18.4 µM [falling, single point]	–
CCOC(=O)C(=CNc1cc(C)ccc1C)C(=O)OCC	-3.67	–	1.03 µM [rising, full curve]
O=C1CCCN1CCCn1cnc2c([nH]c3ccc(F)cc32)c1=O	-13.9	–	–
Cc1ccc(O)c(C(=O)c2cnc3c(c2)COc2ccccc2-3)c1	-38.1	18.4 µM [falling, partial curve]	–
